Results as given in article PMC7819943, “Rice protein-binding microarrays: a tool to detect cis-acting elements near promoter regions in rice”.
This is one part of the list.

The sequences below were run against T1, OsSMF1 (Oryza sativa, UniProt Q6ZLB0 1-436) (assay: protein-binding microarray (RPBM); PBS, 2% BSA, 51.3 ng/ul salmon testes DNA, 50 uM zinc acetate, 200 nM TF, 25 C, 1 h; high values mean tight binding). Conditions: protein: recombinant; tags: N-terminal polyhistidine and DsRed monomer fusion (pET32a); chain copies: 2; label: CyDye5-dUTP incorporated in the synthesized complementary strand; 3' TTTTT single-stranded linker to array surface; dsDNA, one strand shown.
T1 sequence: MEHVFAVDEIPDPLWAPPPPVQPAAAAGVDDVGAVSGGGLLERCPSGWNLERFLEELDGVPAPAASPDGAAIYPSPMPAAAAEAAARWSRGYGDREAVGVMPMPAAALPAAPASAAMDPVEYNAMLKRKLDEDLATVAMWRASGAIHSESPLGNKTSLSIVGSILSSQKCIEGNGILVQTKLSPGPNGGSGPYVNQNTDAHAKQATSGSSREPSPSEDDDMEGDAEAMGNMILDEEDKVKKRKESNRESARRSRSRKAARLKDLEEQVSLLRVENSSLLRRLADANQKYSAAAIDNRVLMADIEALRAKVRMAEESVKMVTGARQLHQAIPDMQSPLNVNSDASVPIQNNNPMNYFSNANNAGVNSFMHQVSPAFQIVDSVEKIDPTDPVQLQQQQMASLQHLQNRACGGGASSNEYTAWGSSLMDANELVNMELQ
How it was run: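 Binding signal here means per-feature fluorescence intensity in arbitrary units. The values were read on an Axon 4000B scanner after a custom Agilent array, double-stranded by primer extension with Cy5-dUTP, was incubated with 200 nM protein at 25 °C for 1 h in PBS with 2% BSA, salmon testes DNA and 50 µM zinc acetate, then washed. The proteins were transcription factors with an N-terminal polyhistidine tag and DsRed, expressed in E. coli BL21-CodonPlus and purified on Ni–NTA.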

In order of rising binding signal:
1. CTGTGTTAGCGTGCTCTACGTATTCGCGATAGACTTATATCGGAGTCACCTAGTGCAG  3150 fluorescence intensity (a.u.)
2. TGAATGCACGTACTGGTGATGAATCTCTGATGGATGGAAGCGGAGTCACCTAGTGCAG  3210 fluorescence intensity (a.u.)
3. TGGTGCGCTCGTTAAGCCAGCTCGGTTTATGTTAGATCATCGGAGTCACCTAGTGCAG  3210 fluorescence intensity (a.u.)
4. GCTCCTCTACACCCACCCATGGCCGGTCGAGAAGAGAGCCCGGAGTCACCTAGTGCAG  3260 fluorescence intensity (a.u.)
5. AACGTGCCACTTTACCTGACGTGATGAAACAATATTATCACGGAGTCACCTAGTGCAG  3320 fluorescence intensity (a.u.)
6. CCCTCTCCACATTCTCTTCCACCTGTGTTCCCCTTTTCTTCGGAGTCACCTAGTGCAG  3320 fluorescence intensity (a.u.)
7. GGTATCTCAATGACATGTAGTATCCACATGAGTCAATGACCGGAGTCACCTAGTGCAG  3320 fluorescence intensity (a.u.)
8. TAAAGTTTTGGGATGGGATGTAAACAGGGCAAAGTCAAACCGGAGTCACCTAGTGCAG  3340 fluorescence intensity (a.u.)
9. CGTGGCAGAGGACGCGTGGACGCTCCGCGATGATGACCCTCGGAGTCACCTAGTGCAG  3390 fluorescence intensity (a.u.)
10. AAATGTGGTCGAACGATGTCGTAAGCTTGCGGTAATTGTACGGAGTCACCTAGTGCAG  3400 fluorescence intensity (a.u.)
11. GCTATACTTGATGACCTACAGGCCTTGTAGTCTACCTGACCGGAGTCACCTAGTGCAG  3440 fluorescence intensity (a.u.)
12. CCATTGATCAATGTATACGTTTCCTATATGTGTTTATATTCGGAGTCACCTAGTGCAG  3470 fluorescence intensity (a.u.)
13. TTTCACATGTAGATATCATCATCAAATATGTAAAGCGAAACGGAGTCACCTAGTGCAG  3480 fluorescence intensity (a.u.)
14. ATTATACGTGTCCACACGTGATGGAAGCAGCTCTCGTGGACGGAGTCACCTAGTGCAG  3500 fluorescence intensity (a.u.)
15. TCATCGATCTATTATGGACGTACAGTAAAAGGTCAGTCAGCGGAGTCACCTAGTGCAG  3620 fluorescence intensity (a.u.)
16. TGCCGGGGATTGCTGCGGATAGGTGCACGTGCTGCCGCCGCGGAGTCACCTAGTGCAG  3700 fluorescence intensity (a.u.)
17. GGCCGACGTCGGCGTCGGCGTCGGCGTCGGCTTCACCTTCCGGAGTCACCTAGTGCAG  3710 fluorescence intensity (a.u.)
18. TTCCATGTGTCCCAGTTAAAGCAATTTGTTCCTGACAACACGGAGTCACCTAGTGCAG  3720 fluorescence intensity (a.u.)
19. GGTTAGGTGCCACATATTGCCACACAACATGTTAGGCATGCGGAGTCACCTAGTGCAG  3750 fluorescence intensity (a.u.)
20. GAACAGCTCGTGGATACTAATCGTCGTGGAGAATTCAACACGGAGTCACCTAGTGCAG  3780 fluorescence intensity (a.u.)
21. AATGCTAACCGGCTAAGAGGAGGTGGACTGTTGGTCTATACGGAGTCACCTAGTGCAG  3970 fluorescence intensity (a.u.)
22. GGCATGTTACTCTGTTCCATCATGATTGGACCAAAGAAATCGGAGTCACCTAGTGCAG  4020 fluorescence intensity (a.u.)
23. AAGGACCGGATGTAAAACTATTACCTACGTGGAGCATCATCGGAGTCACCTAGTGCAG  4160 fluorescence intensity (a.u.)
24. GCCTAATTACATCATGATTTGACAATGTTGTGCTACAGTACGGAGTCACCTAGTGCAG  4210 fluorescence intensity (a.u.)
25. ACGGCTGTTGCCTGACGGGCTATAGTGGTTCTGTTTGACACGGAGTCACCTAGTGCAG  4460 fluorescence intensity (a.u.)
26. CGTTAGCCCACGCATGGCCTCGTGTCACCGTCGCTTCGAGCGGAGTCACCTAGTGCAG  4620 fluorescence intensity (a.u.)
27. CTCATGAGATGCTAGCTGAATCAGCAAGGAAATCTGCTATCGGAGTCACCTAGTGCAG  4720 fluorescence intensity (a.u.)
28. AACTACCAGAAATCGTCATCTGCTGACCTGGTTCAGCTAACGGAGTCACCTAGTGCAG  4860 fluorescence intensity (a.u.)
29. CTTTCTTTCTCGTCGTCACCCAGTTGCCGCTGATGCAATTCGGAGTCACCTAGTGCAG  5070 fluorescence intensity (a.u.)
30. GCAAAGCTTCAATGACCTGACACATCCTTCCATTTCTACGCGGAGTCACCTAGTGCAG  5090 fluorescence intensity (a.u.)
31. CGCCACATGACAATGACTGACAGGCTGGCCCCACGTCCTACGGAGTCACCTAGTGCAG  5210 fluorescence intensity (a.u.)
32. ACCGTACGGCTCCTCCTACTCACCCTCAAACCAACGTGTCCGGAGTCACCTAGTGCAG  5680 fluorescence intensity (a.u.)
33. TTTCTTTACAGTAAATTTCACAAAACTACTGATACTTTAACGGAGTCACCTAGTGCAG  5760 fluorescence intensity (a.u.)
34. TGCTATGATGGAGTAATGGTTGAGTCATTGGGCAAAAGCTCGGAGTCACCTAGTGCAG  6460 fluorescence intensity (a.u.)
35. GATTCACCACGTTGCCCAACCTGATGTGTGCACGTCAGAACGGAGTCACCTAGTGCAG  7330 fluorescence intensity (a.u.)
36. AAAATCTTTAATTGTCATGAGTTCAAACAGTACAATAGATCGGAGTCACCTAGTGCAG  10200 fluorescence intensity (a.u.)
37. CACATACTAGCGGCTAGTTGACGTGTCTCTAATCTTTTGACGGAGTCACCTAGTGCAG  12100 fluorescence intensity (a.u.)
38. CTCGGCCCACGTCATACGGCCCATGGTCCACGGCCCACATCGGAGTCACCTAGTGCAG  14200 fluorescence intensity (a.u.)
39. TGAGAGAGAATTGCATTTTATGACATGCCCATATGATGATCGGAGTCACCTAGTGCAG  17600 fluorescence intensity (a.u.)
40. GAATTTGAAGACCGACCTCTATACCGACAGCTGACTTGGGCGGAGTCACCTAGTGCAG  19700 fluorescence intensity (a.u.)
41. AATCCAACGCCCCAGGTTCCTCCACGTCACCCTCCTTCCCCGGAGTCACCTAGTGCAG  30700 fluorescence intensity (a.u.)
42. TTATTATTAGTAAATATGTAGTTTTACGATATTTAGTCTTCGGAGTCACCTAGTGCAG  44400 fluorescence intensity (a.u.)
